Laboratory results: the supplement of paper PMC10849652
This is one part of the list.

The chains behind the UniProt entries cited, without tags or fusion partners. Where a name states a change or a piece, a line headed by the entry shows the natural chain unless it says otherwise.
UniProt P01033: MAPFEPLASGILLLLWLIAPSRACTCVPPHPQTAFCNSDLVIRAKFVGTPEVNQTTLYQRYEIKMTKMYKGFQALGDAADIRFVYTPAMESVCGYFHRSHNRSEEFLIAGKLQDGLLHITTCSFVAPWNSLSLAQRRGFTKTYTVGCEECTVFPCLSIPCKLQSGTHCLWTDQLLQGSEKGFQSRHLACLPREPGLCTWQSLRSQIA
UniProt Q15814: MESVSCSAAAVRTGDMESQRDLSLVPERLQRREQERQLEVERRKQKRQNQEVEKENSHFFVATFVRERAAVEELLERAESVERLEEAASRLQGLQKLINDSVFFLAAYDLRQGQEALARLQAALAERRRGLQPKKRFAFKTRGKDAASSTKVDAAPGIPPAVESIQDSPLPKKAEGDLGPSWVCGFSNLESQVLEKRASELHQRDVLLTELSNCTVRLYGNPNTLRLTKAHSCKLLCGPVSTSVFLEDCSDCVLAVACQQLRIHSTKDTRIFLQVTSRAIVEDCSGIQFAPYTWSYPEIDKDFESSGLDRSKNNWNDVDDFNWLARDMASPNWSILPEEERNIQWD
UniProt Q9Y4P3: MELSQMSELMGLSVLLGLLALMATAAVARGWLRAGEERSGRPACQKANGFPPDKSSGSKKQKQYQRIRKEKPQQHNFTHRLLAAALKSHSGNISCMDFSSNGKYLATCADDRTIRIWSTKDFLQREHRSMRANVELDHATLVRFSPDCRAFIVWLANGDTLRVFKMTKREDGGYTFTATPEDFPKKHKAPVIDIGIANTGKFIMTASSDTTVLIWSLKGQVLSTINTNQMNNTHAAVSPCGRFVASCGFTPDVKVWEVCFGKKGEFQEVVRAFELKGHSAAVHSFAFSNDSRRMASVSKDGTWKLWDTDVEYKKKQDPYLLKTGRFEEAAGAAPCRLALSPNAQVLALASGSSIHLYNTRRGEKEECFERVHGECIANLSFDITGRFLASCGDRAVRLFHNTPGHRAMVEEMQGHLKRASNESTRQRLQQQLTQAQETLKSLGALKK
UniProt O60343: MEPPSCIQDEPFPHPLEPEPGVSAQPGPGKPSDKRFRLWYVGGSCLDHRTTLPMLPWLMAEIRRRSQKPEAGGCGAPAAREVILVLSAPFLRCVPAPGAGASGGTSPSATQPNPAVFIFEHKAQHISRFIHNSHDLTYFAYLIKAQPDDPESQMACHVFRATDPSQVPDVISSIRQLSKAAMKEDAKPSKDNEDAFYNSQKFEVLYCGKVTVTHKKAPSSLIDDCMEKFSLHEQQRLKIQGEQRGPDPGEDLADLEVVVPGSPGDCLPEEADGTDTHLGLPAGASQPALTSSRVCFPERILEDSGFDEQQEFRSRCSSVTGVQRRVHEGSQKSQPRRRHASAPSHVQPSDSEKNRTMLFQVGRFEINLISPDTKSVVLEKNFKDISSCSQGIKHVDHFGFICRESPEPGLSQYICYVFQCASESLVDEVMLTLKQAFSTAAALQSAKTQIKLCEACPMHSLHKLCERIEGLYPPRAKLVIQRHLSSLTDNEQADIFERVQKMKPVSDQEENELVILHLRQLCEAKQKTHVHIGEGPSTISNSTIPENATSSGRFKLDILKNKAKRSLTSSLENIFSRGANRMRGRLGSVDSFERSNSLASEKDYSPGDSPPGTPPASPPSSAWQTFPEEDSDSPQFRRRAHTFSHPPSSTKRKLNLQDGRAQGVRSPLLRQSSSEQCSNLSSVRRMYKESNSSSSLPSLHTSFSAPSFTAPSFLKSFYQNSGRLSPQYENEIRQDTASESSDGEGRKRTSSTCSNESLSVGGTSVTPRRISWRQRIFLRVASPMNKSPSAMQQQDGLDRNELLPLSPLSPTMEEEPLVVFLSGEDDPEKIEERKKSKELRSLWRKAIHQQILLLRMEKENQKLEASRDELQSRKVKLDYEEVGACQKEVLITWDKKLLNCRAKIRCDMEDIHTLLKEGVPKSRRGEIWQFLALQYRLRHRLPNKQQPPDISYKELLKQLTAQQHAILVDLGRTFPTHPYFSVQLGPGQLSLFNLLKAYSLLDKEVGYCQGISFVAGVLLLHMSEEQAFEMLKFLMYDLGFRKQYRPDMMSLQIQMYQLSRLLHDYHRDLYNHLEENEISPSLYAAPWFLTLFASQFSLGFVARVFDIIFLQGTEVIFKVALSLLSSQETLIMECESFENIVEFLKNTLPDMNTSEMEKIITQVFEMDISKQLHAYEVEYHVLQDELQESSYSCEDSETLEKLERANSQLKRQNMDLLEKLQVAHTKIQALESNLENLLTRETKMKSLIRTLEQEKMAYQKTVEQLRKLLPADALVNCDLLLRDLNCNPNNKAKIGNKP
UniProt P17987, whole entry, looked up: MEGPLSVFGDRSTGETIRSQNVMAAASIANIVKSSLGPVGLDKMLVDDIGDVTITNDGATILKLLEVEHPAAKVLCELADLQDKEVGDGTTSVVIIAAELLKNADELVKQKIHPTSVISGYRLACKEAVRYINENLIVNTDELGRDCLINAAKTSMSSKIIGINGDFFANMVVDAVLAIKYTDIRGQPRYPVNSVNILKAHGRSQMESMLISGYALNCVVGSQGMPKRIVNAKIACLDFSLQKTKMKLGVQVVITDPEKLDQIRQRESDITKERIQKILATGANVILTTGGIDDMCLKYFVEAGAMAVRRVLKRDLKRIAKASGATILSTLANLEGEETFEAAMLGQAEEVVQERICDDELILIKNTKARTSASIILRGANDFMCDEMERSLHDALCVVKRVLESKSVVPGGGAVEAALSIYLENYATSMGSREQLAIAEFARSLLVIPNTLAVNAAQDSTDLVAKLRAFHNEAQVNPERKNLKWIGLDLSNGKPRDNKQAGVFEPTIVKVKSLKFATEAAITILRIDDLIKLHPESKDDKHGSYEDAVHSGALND
UniProt P52888, whole entry, looked up: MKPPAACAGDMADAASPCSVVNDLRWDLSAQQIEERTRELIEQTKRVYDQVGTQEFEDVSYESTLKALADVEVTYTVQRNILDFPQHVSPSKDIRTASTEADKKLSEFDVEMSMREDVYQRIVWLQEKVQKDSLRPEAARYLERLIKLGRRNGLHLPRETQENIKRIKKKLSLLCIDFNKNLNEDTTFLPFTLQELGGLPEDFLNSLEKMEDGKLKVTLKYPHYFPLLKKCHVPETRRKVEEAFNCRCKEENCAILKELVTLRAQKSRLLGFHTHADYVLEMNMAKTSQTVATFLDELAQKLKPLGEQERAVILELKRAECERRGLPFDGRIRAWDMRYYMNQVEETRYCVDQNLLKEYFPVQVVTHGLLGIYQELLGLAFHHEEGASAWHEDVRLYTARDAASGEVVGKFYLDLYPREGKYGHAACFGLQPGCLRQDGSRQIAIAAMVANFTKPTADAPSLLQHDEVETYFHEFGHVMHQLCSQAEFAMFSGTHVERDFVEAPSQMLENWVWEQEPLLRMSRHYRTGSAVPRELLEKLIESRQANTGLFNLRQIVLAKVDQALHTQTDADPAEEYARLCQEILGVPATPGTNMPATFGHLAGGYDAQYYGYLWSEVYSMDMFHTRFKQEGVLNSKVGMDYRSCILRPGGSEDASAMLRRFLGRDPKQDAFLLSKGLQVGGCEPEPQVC
UniProt Q99081: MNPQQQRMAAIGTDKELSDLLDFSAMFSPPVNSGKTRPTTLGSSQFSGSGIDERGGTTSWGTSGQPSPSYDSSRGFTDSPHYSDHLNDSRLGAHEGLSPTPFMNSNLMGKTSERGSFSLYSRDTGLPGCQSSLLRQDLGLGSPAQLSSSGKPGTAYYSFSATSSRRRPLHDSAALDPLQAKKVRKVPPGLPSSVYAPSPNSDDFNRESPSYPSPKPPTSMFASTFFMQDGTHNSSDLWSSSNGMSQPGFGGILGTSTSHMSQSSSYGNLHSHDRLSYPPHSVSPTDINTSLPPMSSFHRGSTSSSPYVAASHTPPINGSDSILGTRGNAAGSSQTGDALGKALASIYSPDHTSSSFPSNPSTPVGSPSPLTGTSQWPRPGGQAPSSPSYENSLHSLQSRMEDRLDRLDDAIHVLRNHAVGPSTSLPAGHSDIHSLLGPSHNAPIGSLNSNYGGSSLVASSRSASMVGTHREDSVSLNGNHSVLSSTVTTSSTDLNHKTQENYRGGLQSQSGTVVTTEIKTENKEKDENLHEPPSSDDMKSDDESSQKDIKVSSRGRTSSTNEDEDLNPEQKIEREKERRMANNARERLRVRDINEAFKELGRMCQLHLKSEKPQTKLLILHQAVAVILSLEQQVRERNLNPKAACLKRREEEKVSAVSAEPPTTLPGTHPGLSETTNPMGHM
UniProt Q96MV1: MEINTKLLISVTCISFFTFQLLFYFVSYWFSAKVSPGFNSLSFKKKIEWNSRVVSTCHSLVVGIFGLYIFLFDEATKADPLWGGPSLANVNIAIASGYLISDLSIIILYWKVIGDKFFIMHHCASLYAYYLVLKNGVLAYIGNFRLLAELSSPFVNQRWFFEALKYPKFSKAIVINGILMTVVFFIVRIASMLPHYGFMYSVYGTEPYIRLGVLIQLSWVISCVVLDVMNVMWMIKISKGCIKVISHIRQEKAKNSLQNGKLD
UniProt Q3LXA3: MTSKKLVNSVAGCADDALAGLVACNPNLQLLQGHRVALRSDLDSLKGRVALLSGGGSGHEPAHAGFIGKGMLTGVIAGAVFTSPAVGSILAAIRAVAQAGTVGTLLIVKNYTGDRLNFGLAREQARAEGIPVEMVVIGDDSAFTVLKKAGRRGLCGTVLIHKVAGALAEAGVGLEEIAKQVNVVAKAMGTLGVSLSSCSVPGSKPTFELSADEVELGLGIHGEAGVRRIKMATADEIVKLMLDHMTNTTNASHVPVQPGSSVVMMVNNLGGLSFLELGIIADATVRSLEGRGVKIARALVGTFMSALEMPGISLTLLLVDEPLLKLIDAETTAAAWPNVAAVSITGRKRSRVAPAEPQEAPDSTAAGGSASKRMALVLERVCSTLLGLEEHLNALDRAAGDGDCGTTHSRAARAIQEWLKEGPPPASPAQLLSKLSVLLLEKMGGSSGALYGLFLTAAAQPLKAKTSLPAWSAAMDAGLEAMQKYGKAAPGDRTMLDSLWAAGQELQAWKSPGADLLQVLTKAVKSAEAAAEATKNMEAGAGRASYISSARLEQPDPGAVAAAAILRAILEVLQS
UniProt Q04726: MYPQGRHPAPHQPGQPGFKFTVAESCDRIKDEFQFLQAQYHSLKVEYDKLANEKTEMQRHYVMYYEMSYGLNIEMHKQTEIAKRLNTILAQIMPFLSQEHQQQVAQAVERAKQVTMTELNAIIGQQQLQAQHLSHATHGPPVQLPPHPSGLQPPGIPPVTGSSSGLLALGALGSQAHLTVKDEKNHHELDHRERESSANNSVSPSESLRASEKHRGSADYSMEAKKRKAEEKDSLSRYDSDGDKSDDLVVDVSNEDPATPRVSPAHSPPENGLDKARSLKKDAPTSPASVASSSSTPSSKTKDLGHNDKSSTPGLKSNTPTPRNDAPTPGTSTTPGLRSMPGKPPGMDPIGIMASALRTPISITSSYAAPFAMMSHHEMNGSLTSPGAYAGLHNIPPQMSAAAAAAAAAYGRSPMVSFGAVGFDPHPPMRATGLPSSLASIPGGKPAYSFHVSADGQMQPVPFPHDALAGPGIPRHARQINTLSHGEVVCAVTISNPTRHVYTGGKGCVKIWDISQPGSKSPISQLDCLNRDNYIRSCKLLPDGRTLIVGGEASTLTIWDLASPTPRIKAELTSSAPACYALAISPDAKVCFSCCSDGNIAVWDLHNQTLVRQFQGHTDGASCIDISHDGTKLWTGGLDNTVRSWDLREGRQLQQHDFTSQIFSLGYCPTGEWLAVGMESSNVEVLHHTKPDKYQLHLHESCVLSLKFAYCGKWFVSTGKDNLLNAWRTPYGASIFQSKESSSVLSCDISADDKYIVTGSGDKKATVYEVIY
UniProt Q8IYQ7: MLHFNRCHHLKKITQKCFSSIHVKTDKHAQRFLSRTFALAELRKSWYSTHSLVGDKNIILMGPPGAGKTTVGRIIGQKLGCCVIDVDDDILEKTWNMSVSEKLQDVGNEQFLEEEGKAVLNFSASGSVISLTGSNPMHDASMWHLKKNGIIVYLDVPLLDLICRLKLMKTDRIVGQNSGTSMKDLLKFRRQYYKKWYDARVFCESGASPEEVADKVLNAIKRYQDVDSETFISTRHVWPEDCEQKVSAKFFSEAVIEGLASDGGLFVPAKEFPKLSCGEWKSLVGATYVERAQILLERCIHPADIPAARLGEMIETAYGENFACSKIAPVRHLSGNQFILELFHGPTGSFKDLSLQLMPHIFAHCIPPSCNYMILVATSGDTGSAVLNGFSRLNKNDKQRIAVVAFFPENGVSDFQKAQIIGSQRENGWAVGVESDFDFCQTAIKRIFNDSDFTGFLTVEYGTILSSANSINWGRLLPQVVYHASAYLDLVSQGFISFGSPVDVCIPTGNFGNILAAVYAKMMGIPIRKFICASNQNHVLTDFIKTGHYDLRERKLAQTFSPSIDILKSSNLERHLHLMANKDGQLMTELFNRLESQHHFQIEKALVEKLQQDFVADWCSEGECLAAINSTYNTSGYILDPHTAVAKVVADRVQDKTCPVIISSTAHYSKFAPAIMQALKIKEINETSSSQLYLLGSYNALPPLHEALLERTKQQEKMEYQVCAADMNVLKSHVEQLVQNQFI

How the values were obtained:
Experiment in all cases: log2 fold change, soluble protein after heating vs DMSO (PISA); higher = thermal stabilisation; K562 cells, 10 uM, 30 min; active = over 0.2 and 3.5 SD of the protein, either way, in both replicates (recomputed)
[1] = compound: CC1=C(C=C(C=C1)NC(=O)C2=CC(=CC=C2)C(C)(C)C#N)NC3=CC4=C(C=C3)N=CN(C4=O)C
In short: (§1)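 Soluble protein was defined as the supernatant after 21,000xg for 90 min. It came from K562 cells at 2×10^6 cells/mL given 10 μM compound for 30 min, heated in aliquots for 3 min across 48°C-58°C, pooled, and extracted in PBS with 0.5% NP-40 at 4°C, and was quantified by TMTpro 16plex LC-MS/MS with equalised channel sums. Thermal stability against control samples, from duplicates, is reported as log2 fold change.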

[2] = compound: CC1=C(C=C(C=C1)NC(=O)C2=CC(=CC=C2)N(C)C)NC(=O)C3=CC=C(C=C3)O
In short: as §1

[3] = compound: CC1=CC=C(C=C1)SC2=C3C=C(SC3=CN=C2)C(=O)N
In short: as §1

[4] = compound: CC1=NC(=CC=C1)C2=C(N=C(N2)C(C)(C)C)C3=CC4=NC=CN=C4C=C3
In short: as §1

[5] = compound: CCCCN(Cc1ccc(C(=O)NO)cc1)C(=O)Nc1ccccc1 [Nexturastat A]
In short: as §1

[6] = compound: CCCS(=O)(=O)Nc1ccc(F)c(C(=O)c2c[nH]c3ncc(-c4ccc(Cl)cc4)cc23)c1F [vemurafenib]
In short: as §1

[7] = compound: CCCS(=O)(=O)Nc1ccc(F)c(C(=O)c2c[nH]c3ncc(Cl)cc23)c1F
In short: as §1

[8] = compound: CCCc1cc(C)[nH]c(=O)c1CNC(=O)c1cc(-c2ccnc(N3CCN(C)CC3)c2)cc2c1cnn2C(C)C
In short: as §1

[9] = compound: CCN(CC)Cc1ccc2cc(COC(=O)Nc3ccc(C(=O)NO)cc3)ccc2c1 [givinostat]
In short: as §1

[10] = compound: CCN(CCCOc1ccc2c(Nc3cc(CC(=O)Nc4cccc(F)c4)[nH]n3)ncnc2c1)CCOP(=O)(O)O [barasertib]
In short: as §1

[11] = compound: CC[C@@H]1C(=O)N(C)c2cnc(Nc3ccc(C(=O)NC4CCN(C)CC4)cc3OC)nc2N1C1CCCC1
In short: as §1

[12] = compound: CC[C@@H]1C(=O)N(C)c2cnc(Nc3ccc(C(=O)N[C@H]4CC[C@H](N5CCN(CC6CC6)CC5)CC4)cc3OC)nc2N1C(C)C [volasertib]
In short: as §1

[13] = compound: CC[C@H](C)N1C=C(C2=C(C=C(C=C21)C3=CN=C(C=C3)N4CCNCC4)C(=O)NCC5=C(C=C(NC5=O)C)C)C
In short: as §1

[14] = compound: CC[C@H](C)[C@@H](C(=O)N[C@@H]([C@@H](C)O)C(=O)N[C@@H](CC(C)C)C(=O)[C@]1(CO1)C)NC(=O)[C@H]([C@@H](C)CC)N(C)C(=O)C [epoxomicin]
In short: as §1

[15] = compound: CCn1c(C(=O)N(C2CC2)C2CC2)cc2c3c(ncn3C)c(Nc3cc(C)n(C)n3)nc21
In short: as §1

[16] = compound: CCn1cc(-c2ccnc3[nH]c(-c4cccc(CN(C)C)c4)cc23)c(-c2ccc(NC(=O)N(C)C)cc2)n1
In short: as §1

[17] = compound: CN(C)CC(=O)Nc1ccc2[nH]c(=O)c3ccccc3c2c1
In short: as §1

[18] = compound: CN(CCOC1=CC=C(C=C1)C[C@H]2C(=O)NC(=O)S2)C3=CC=CC=N3 (racemic) [rosiglitazone]
In short: as §1

[19] = compound: CN1C2=C(C3=C1C(=O)N(N=C3)CC4=CC(=CC=C4)N)SC(=C2)S(=O)C
In short: as §1

[20] = compound: CN1CCC(CNc2ccc3ncc(-c4cccc(OC(F)(F)F)c4)n3n2)CC1
In short: as §1

Measured: log2 fold change

TIMP1 (UniProt P01033)
inactive: [1] 0.089 | [2] 0.01 | [3] -0.025 | [4] -0.052 | [5] -0.051 | [6] -0.022 | [7] -0.076 | [8] -0.022 | [9] -0.052 | [10] -0.045 | [11] 0.046 | [12] 0.15 | [13] -0.02 | [14] -0.074 | [15] 0.034 | [16] 0.072 | [17] -0.084 | [18] -0.085 | [19] -0.032 | [20] 0.182

TBCC (UniProt Q15814)
inactive: [1] 0.033 | [2] -0.038 | [3] 0.005 | [4] 0.007 | [5] -0.048 | [6] 0.028 | [7] 0.06 | [8] -0.019 | [9] -0.003 | [10] -0.012 | [11] -0.038 | [12] -0.034 | [13] 0.033 | [14] 0.049 | [15] -0.012 | [16] -0.035 | [17] -0.022 | [18] 0.035 | [19] -0.042 | [20] -0.002

THOC3 (UniProt Q96J01)
inactive: [1] -0.078 | [2] -0.004 | [3] 0.008 | [4] 0.01 | [5] -0.013 | [6] -0.001 | [7] 0.065 | [8] 0.011 | [9] -0.04 | [10] 0.016 | [11] -0.057 | [12] -0.084 | [13] 0.02 | [14] 0.005 | [15] -0.014 | [16] -0.078 | [17] -0.008 | [18] -0.006 | [19] -0.034 | [20] 0.01

THOC6 (UniProt Q86W42)
inactive: [1] -0.045 | [2] 0.026 | [3] 0.029 | [4] -0.004 | [5] 0.009 | [6] 0.022 | [7] 0.006 | [8] 0.02 | [9] 0.009 | [10] 0.007 | [11] -0.037 | [12] -0.022 | [13] 0.004 | [14] 0.044 | [15] -0.021 | [16] -0.01 | [17] -0.018 | [18] 0.019 | [19] -0.034 | [20] 0.042

TBL2 (UniProt Q9Y4P3)
inactive: [1] 0.024 | [2] -0.023 | [3] -0.04 | [4] 0 | [5] 0.239 | [6] -0.008 | [7] -0.003 | [8] 0.097 | [9] 0.008 | [10] -0.012 | [11] 0.073 | [12] 0.026 | [13] 0.086 | [14] -0.238 | [15] -0.051 | [16] 0.056 | [17] -0.039 | [18] -0.032 | [19] 0.134 | [20] 0.142

TBC1D4 (UniProt O60343)
inactive: [1] -0.023 | [2] 0.013 | [3] 0.017 | [4] -0.007 | [5] 0.039 | [6] -0.033 | [7] 0.034 | [8] -0.001 | [9] -0.058 | [10] 0.028 | [11] -0.094 | [12] -0.064 | [13] 0.016 | [14] -0.014 | [15] -0.053 | [16] -0.058 | [17] -0.001 | [18] 0.071 | [19] -0.019 | [20] -0.049

THEM6 (UniProt Q8WUY1)
inactive: [1] 0.056 | [2] -0.02 | [3] -0.024 | [4] 0.028 | [5] -0.127 | [6] 0.052 | [7] -0.004 | [8] -0.028 | [9] -0.045 | [10] -0.003 | [11] -0.035 | [12] 0.022 | [13] -0.053 | [14] -0.03 | [15] 0.071 | [16] 0.037 | [17] 0.062 | [18] 0.003 | [19] -0.058 | [20] -0.024

TCP1 (UniProt P17987)
inactive: [1] 0.013 | [2] 0.003 | [3] 0.021 | [4] 0.019 | [5] -0.062 | [6] -0.007 | [7] -0.002 | [8] -0.001 | [9] -0.023 | [10] -0.019 | [11] -0.013 | [12] 0.004 | [13] -0.007 | [14] 0.003 | [15] -0.002 | [16] 0.015 | [17] -0.001 | [18] 0.002 | [19] -0.042 | [20] 0

THOP1 (UniProt P52888)
inactive: [1] 0.014 | [2] -0.004 | [3] 0.013 | [4] 0.026 | [5] -0.018 | [6] -0.005 | [7] 0.002 | [8] -0.007 | [9] -0.005 | [10] -0.012 | [11] 0.007 | [12] 0.035 | [13] -0.022 | [14] -0.027 | [15] 0.007 | [16] -0.009 | [17] -0.006 | [18] 0.01 | [19] -0.058 | [20] -0.039

THOC7 (UniProt Q6I9Y2)
inactive: [1] -0.042 | [2] 0.002 | [3] -0.038 | [4] 0.002 | [5] 0.027 | [6] 0.029 | [7] -0.05 | [8] 0.005 | [9] 0.044 | [10] 0.046 | [11] 0.071 | [12] -0.032 | [13] 0.029 | [14] 0.005 | [15] -0.007 | [16] -0.007 | [17] -0.119 | [18] 0.002 | [19] 0.007 | [20] 0.048

TCF12 isoform 3 (UniProt Q99081)
inactive: [1] -0.01 | [2] -0.02 | [3] 0.055 | [4] 0.069 | [5] -0.011 | [6] 0.048 | [7] 0.049 | [8] -0.032 | [9] 0.036 | [10] 0.059 | [11] -0.023 | [12] -0.13 | [13] 0.092 | [14] 0.108 | [15] -0.166 | [16] 0.102 | [17] 0.028 | [18] -0.011 | [19] 0.053 | [20] -0.064

TLCD4 (UniProt Q96MV1)
inactive: [1] 0.037 | [2] 0.012 | [3] -0.018 | [4] 0.11 | [5] -0.143 | [6] -0.005 | [7] 0.034 | [8] -0.026 | [9] -0.021 | [10] -0.029 | [11] 0.054 | [12] 0.062 | [13] -0.002 | [14] 0.061 | [15] 0.07 | [16] -0.029 | [17] 0.081 | [18] 0.012 | [19] -0.043 | [20] 0.123

TKFC (UniProt Q3LXA3)
inactive: [1] 0.024 | [2] 0.019 | [3] 0.003 | [4] 0.038 | [5] -0.073 | [6] -0.01 | [7] -0.009 | [8] -0.024 | [9] -0.004 | [10] 0.01 | [11] 0.03 | [12] -0.023 | [13] -0.007 | [14] -0.01 | [15] 0.018 | [16] 0.001 | [17] -0.025 | [18] 0.019 | [19] -0.068 | [20] -0.036

TLE3 isoform 4 (UniProt Q04726)
inactive: [1] -0.023 | [2] -0.007 | [3] 0.016 | [4] 0.008 | [5] 0.012 | [6] -0.018 | [7] 0.028 | [8] 0.035 | [9] -0.008 | [10] 0.004 | [11] 0.031 | [12] -0.01 | [13] -0.023 | [14] 0.101 | [15] -0.035 | [16] -0.043 | [17] -0.04 | [18] -0.01 | [19] 0.028 | [20] 0.032

TF (UniProt P02787)
inactive: [1] -0.096 | [2] 0.665 | [3] 0.17 | [4] 0.111 | [5] 0 | [6] 0.092 | [7] -0.204 | [8] -0.216 | [9] -0.196 | [10] -0.139 | [11] -0.04 | [12] 0.199 | [13] 0.003 | [14] -0.536 | [15] -0.074 | [16] -0.064 | [17] -0.009 | [18] -0.086 | [19] 0.159 | [20] 0.09

THNSL1 (UniProt Q8IYQ7)
inactive: [1] 0.052 | [2] 0.003 | [3] -0.027 | [4] 0.038 | [5] -0.011 | [6] 0.005 | [7] 0.029 | [8] 0.033 | [9] -0.027 | [10] 0.024 | [11] -0.004 | [12] 0.049 | [13] 0.043 | [14] -0.003 | [15] -0.054 | [16] -0.095 | [17] -0.003 | [18] 0.03 | [19] -0.016 | [20] -0.06

2 entries picked at random from those above:
THNSL1 (UniProt Q8IYQ7)
inactive: [1] 0.052 | [2] 0.003 | [3] -0.027 | [4] 0.038 | [5] -0.011 | [6] 0.005 | [7] 0.029 | [8] 0.033 | [9] -0.027 | [10] 0.024 | [11] -0.004 | [12] 0.049 | [13] 0.043 | [14] -0.003 | [15] -0.054 | [16] -0.095 | [17] -0.003 | [18] 0.03 | [19] -0.016 | [20] -0.06

TKFC (UniProt Q3LXA3)
inactive: [1] 0.024 | [2] 0.019 | [3] 0.003 | [4] 0.038 | [5] -0.073 | [6] -0.01 | [7] -0.009 | [8] -0.024 | [9] -0.004 | [10] 0.01 | [11] 0.03 | [12] -0.023 | [13] -0.007 | [14] -0.01 | [15] 0.018 | [16] 0.001 | [17] -0.025 | [18] 0.019 | [19] -0.068 | [20] -0.036
